# Reference: PubChem BioAssay AID1259415 (National Center for Advancing Translational Sciences (NCATS), 2018)
# The whole screen tested about 410,000 compounds, of which about 18,000 (4.4%) were called active. Inconclusive means that the source gave no clear call. Such entries were picked first, then a sample of the others. Cut-off read from the data, not from the text of the source: active = activity change below about -60%; inconclusive = no clear call, values can overlap the other calls; inactive = above about -39%.
# Experiment: qHTS Assay for inhibitors of the human cytomegalovirus (HCMV)
# Details: HFF cells, HCMV-luciferase reporter, 72 h; at 57.5 µM; active compounds read low
# Method in brief: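 After 16 h attachment at 37C, HFF cells received test compound and HCMV-luciferase (1 PFU/cell); reporter luminescence read 72 h later, data normalized against buffer-only and known inhibitor Salinomycin.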
# % is set by controls: 0 for no effect and ±100 for the full control effect.
row,SMILES,"activity change, negative = inhibition"
1,O=C(Nc1ccc(OC(F)F)c(Cl)c1)c1ccccn1,inactive: 100%
2,CCn1c(C)[n+](CCOC(C)=O)c2cc(Cl)c(Cl)cc21,inconclusive: -45.5%
3,CCCNC(=O)c1cccc(Br)c1,inconclusive: -50.6%
4,COc1ccc(N(C(=O)Cc2cccs2)C(C(=O)NC2CCCC2)c2ccncc2)cc1OC (centres undefined),inactive: 69.9%
5,COC(=O)c1ccccc1NC(=O)C(Cc1ccccc1)N1Cc2ccccc2C1=O (centres undefined),inconclusive: -45.8%
6,COc1cccc(NC(=S)NCc2cccs2)c1,inconclusive: -53.2%
7,CN(C)c1ccc(/C=C2\SC(=O)N(CCc3nnc(N)s3)C2=O)cc1,inconclusive: -40.3%
8,CCCCCCNc1c([N+](=O)[O-])cc(C)cc1[N+](=O)[O-],active: -68.9%
9,O=c1cc(CSc2nnnn2-c2ccccc2)nc(Nc2ccc(F)cc2)[nH]1,inconclusive: -58.3%
10,O=c1cc(/C=C/c2c(F)cccc2Cl)[nH]c2ccccc12,inactive: 61.9%
11,CCN(C(=O)C(NS(=O)(=O)c1ccc(Br)s1)c1ccccc1)c1ccc(C)c(C)c1 (centres undefined),active: -64.4%
12,c1ccc2c(NCC3CCCO3)nc(N3CCOCC3)nc2c1 (centres undefined),inactive: -6.67%
13,Cc1nc(Cl)c(C(=O)NCc2ccccc2)c(C)c1[N+](=O)[O-],inconclusive: -44.1%
14,Nc1ncc(-c2ccc([N+](=O)[O-])cc2)cn1,active: -94.8%
15,COC(=O)[C@]12C[C@H](CC(=O)NCC3CCCCC3)C(=O)N(CCC3=CCCCC3)C1=C[C@H](C(C)(C)C)O[C@@H]2C,inactive: 1.38%
16,CC(=O)Nc1cccc(NC(=O)CS(=O)(=O)c2cn(CC(=O)N(C(C)C)C(C)C)c3ccccc23)c1,inactive: 31.9%
17,O=C(Nc1nc2ccccc2n1CCN1CCOCC1)c1ccccc1,inactive: 5.17%
18,CCS(=O)(=O)N1CCN(c2c(Cl)cccc2[N+](=O)[O-])CC1,inconclusive: -48.8%
19,CCOC(=O)c1c(NC(=O)COc2ccccc2)sc(C(C)=O)c1C,inactive: 3.01%
20,O=C(NNc1ncccc1-n1cccc1)c1ccc(Cl)cc1,inactive: -5.69%
21,N/C(=N\OC(=O)C12CC3CC(CC(C3)C1)C2)c1ccccc1,inactive: 64.9%
22,O=C(Cc1ccccc1)NC(NCCc1ccccc1)C(Cl)(Cl)Cl (centres undefined),inconclusive: -58.1%
23,CCCn1c2ccccc2c2cnn(CC(=O)Nc3cc(OC)c(OC)c(OC)c3)c(=O)c21,inconclusive: -54.9%

row,SMILES,"activity change, negative = inhibition"
1,CCC(=O)N(CCC(Cc1ccccc1)c1ccco1)Cc1ccco1 (centres undefined),inconclusive: -48.3%
2,Cc1noc(C)c1C(=O)OCC(=O)NCCc1ccc(Cl)cc1,inconclusive: -40.4%
3,O=[N+]([O-])c1ccc(N/N=C/c2cn(Cc3ccc(F)cc3)c3ccccc23)nc1,inconclusive: -54.5%
4,O=C(CNC(=O)c1ccc(Cl)cc1)N/N=C/c1cccnc1,inactive: -19.7%
5,CCn1c(SCC(N)=O)nc2sc3c(c2c1=O)CCCC3,inconclusive: -41.9%
6,CN(c1ccccc1)S(=O)(=O)c1cccc(NC(=O)CSc2n[nH]c(N)n2)c1,inconclusive: -52.4%
7,COc1ccc(-c2nnc(SCC(C)C)o2)cc1,inactive: 62.6%
8,CCCN1C(=O)SC(CC(=O)Nc2ccccc2C)C1=O (centres undefined),inconclusive: -58.6%
9,CCCc1cc(N2CCCC2)n2nc(C)c(-c3ccccc3)c2n1,inconclusive: -45.9%
10,COc1ccc(Cc2nc(-c3ccc(-n4cccc4)cc3)no2)cc1OC,inconclusive: -58.4%
11,CC(Oc1ccccc1Cl)C(=O)Nc1ccc(S(=O)(=O)N2CCCC2)cc1 (centres undefined),inactive: -7.9%
12,COc1ccc(-c2nc(NC(=O)Cn3cnnn3)sc2C)cc1,inconclusive: -54.4%
13,COc1cccc(/C=C/C(=O)NCc2ccc3c(c2)OCO3)c1,inconclusive: -44.7%
14,CC1CCN(c2ccc3nnc(CCC(=O)NCc4ccco4)n3n2)CC1,inactive: -36.7%
15,Cc1ccc(NC(=O)c2cccc(OC(F)F)c2)c(OC(F)F)c1,inconclusive: -50.3%
16,CN1CCN(c2ccc([N+](=O)[O-])cc2C(=O)c2ccc(Br)cc2)CC1,inconclusive: -42.5%
17,CC1CC(C)(C)Nc2ccc(OC(=O)c3ccco3)cc21 (centres undefined),active: -107%
18,Oc1cccc(C(O)CNCc2ccc(-c3ccccc3)cc2)c1 (centres undefined),active: -61.9%
19,O=[N+]([O-])c1ccc(C=Nc2ccc(Cl)c([N+](=O)[O-])c2)s1,active: -98.6%
20,CCC(=O)NC(=S)Nc1ccc(NC(=O)c2ccccc2[N+](=O)[O-])cc1,inactive: -34%
21,O=C(c1ccc(Cl)c(Cl)c1)N1CCC(O)(CN2CCOCC2)CC1,inconclusive: -44.7%
22,COc1ccc(S(=O)(=O)c2nnn(-c3cccc(Cl)c3)c2N)cc1,inconclusive: -42%
23,CCOC(=O)C1=c2/c(=C/c3ccncc3)c(N)c(C(=O)OC)n2C(=O)C(c2ccncc2)S1 (centres undefined),inconclusive: -46.8%

# Of the compounds above, these contain a furan ring, fused or not:
row,SMILES,"activity change, negative = inhibition"
1,CCC(=O)N(CCC(Cc1ccccc1)c1ccco1)Cc1ccco1 (centres undefined),inconclusive: -48.3%
14,CC1CCN(c2ccc3nnc(CCC(=O)NCc4ccco4)n3n2)CC1,inactive: -36.7%
17,CC1CC(C)(C)Nc2ccc(OC(=O)c3ccco3)cc21 (centres undefined),active: -107%

# Quoted from the listing.
# Value of Oc1cccc(C(O)CNCc2ccc(-c3ccccc3)cc2)c1 (centres undefined) under activity change, negative = inhibition: active: -61.9%
# Value of CN(c1ccccc1)S(=O)(=O)c1cccc(NC(=O)CSc2n[nH]c(N)n2)c1 under activity change, negative = inhibition: inconclusive: -52.4%
# Value of CC1CC(C)(C)Nc2ccc(OC(=O)c3ccco3)cc21 (centres undefined) under activity change, negative = inhibition: active: -107%

# (next part)

row,SMILES,"activity change, negative = inhibition"
1,O=C(Nc1ccccc1)c1cc2c(=O)c3ccccc3oc2nc1C(F)(F)F,inactive: 25.2%
2,CCC1(CC)NC(=O)N(CC(=O)NCc2ccc3c(c2)OCO3)C1=O,inactive: -20.2%
3,O=C(CSc1cn(CCNC(=O)c2cccs2)c2ccccc12)NCC1CCCO1 (centres undefined),inconclusive: -53.6%
4,COC(=O)c1ccc(NC(=O)c2ccc3nc(C)sc3c2)cc1,inactive: 79.9%
5,CN(CCCC(=O)Nc1ccc(Br)cc1F)S(=O)(=O)c1ccccc1,inconclusive: -41.6%
6,CC(C)=CC(=O)OCC(=O)Nc1ccc(Cl)cn1,inactive: 5.41%
7,Cc1ccc(OCCC(=O)Nc2ccc(S(=O)(=O)Nc3nccs3)cc2)cc1,inactive: -11.9%
8,Cc1ccc2c(CC(=O)Nc3c(C)n(C)n(-c4ccccc4)c3=O)coc2c1,inconclusive: -43.5%
9,Cc1ccc2nc3c(cc(C(=O)NC4CCCC4)c(=N)n3C(C)C)c(=O)n2c1,inactive: -9.49%
10,COc1ccc(NC(=O)CN(C)C(=O)c2cccnc2Sc2ccc(C)c(C)c2)cc1,inconclusive: -43.4%
11,COc1ccc2[nH]cc(CCNC(=O)Nc3cc(C)cc(C)c3)c2c1,inactive: -5.61%
12,FC(F)(F)c1cccc(N2CCC(N=CN3CCCCCC3)=N2)c1,inconclusive: -43.6%
13,COc1ccc(C(=O)CCc2ccccc2)cc1,inconclusive: -58.3%
14,Cc1c(/C=N/Nc2nc3ccccc3[nH]2)c2ccccc2n1C,active: -96%
15,CN(C(=O)COC(=O)c1cc(=O)[nH]c2ccccc12)C1CCCCC1,inconclusive: -43.5%
16,CC#CC(=O)N1CCC(Oc2cccc(C(=O)NCc3ccccn3)c2)CC1,inconclusive: -51.7%
17,COc1cc(OC)c(OC)cc1/C=N/n1c(COc2ccccc2)n[nH]c1=S,inconclusive: -54.1%
18,CCOCCOC(=O)c1ccc2c(c1)N(Cc1ccccc1C#N)C(=O)c1ccccc1S2(=O)=O,inactive: -1.59%
19,Cc1cc(C)n2c(Br)c(CN3CCCC(C)C3)nc2n1 (centres undefined),inconclusive: -41.6%
20,C=CCC1Cc2c(cccc2[N+](=O)[O-])C(CC=C)N1 (centres undefined),inconclusive: -42.9%
21,Cc1cc(C(=O)CSc2nnc3ccccn23)c(C)n1-c1ccccc1,active: -72.4%
22,COc1ccc(CCC(=O)NCCS(=O)(=O)N2CCN(c3ccccc3OC)CC2)cc1,inconclusive: -43.6%
23,Cc1ccc(Cn2c(=S)[nH]c3ccccc3c2=O)cc1,inconclusive: -53.7%

row,SMILES,"activity change, negative = inhibition"
1,Cc1nn(C)c(C)c1CN(Cc1nc(-c2ccc(F)cc2F)oc1C)C1CC1,inconclusive: -53.4%
2,COC(=O)CSC1=C(C#N)C(c2ccccc2)CC(=O)N1 (centres undefined),inactive: -24.9%
3,Cc1cc(NC(=O)C2CCN(S(=O)(=O)c3cccc4nsnc34)CC2)ccc1Br,inconclusive: -41.9%
4,C[C@H]1CCCCO[C@@H](CN(C)C(=O)NC2CCCCC2)[C@@H](C)CN([C@@H](C)CO)C(=O)c2cc(NC(=O)Cc3ccccc3)ccc2O1,inconclusive: -41.6%
5,COc1cc(CNCc2ccccn2)ccc1OCC(=O)NC1CCCCC1,inactive: -18.7%
6,CCC1CN(S(=O)(=O)c2cc(-c3onc(C)c3C)ccc2C)c2cc(Cl)ccc2O1 (centres undefined),active: -66.9%
7,O=C(c1ccc2c(c1)OCCO2)C1CCN(C(=O)c2ccc(F)c(F)c2)CC1,active: -67.5%
8,CCNS(=O)(=O)c1ccc(CCC(=O)NCc2ccccc2)cc1,inconclusive: -49.2%
9,N#Cc1ccsc1NC(=O)CSc1ncnc2ccccc12,inactive: 64.9%
10,CCn1ccnc1CN(C)Cc1cn(-c2ccc(C)cc2)nc1-c1cccc(C)c1,inactive: -21.9%
11,O=S(=O)(Nc1ccc(Cc2ccncc2)cc1)c1ccc(Cl)cc1,active: -65.2%
12,CCOC(=O)C(=O)Nc1nccs1,inconclusive: -44%
13,Cc1nc(C)c(/C(O)=C/c2nc3ccccc3oc2=O)s1,inconclusive: -42.5%
14,CCCN1CCN(c2ncnc3sc(C(=O)Nc4c(C)cc(C)cc4C)c(C)c23)CC1,inconclusive: -47.9%
15,COc1ccc(Nc2oc(COc3ccc(C)cc3)nc2C#N)cc1,inconclusive: -47%
16,CC(=O)Nc1cccc(-c2ccnc3c2CC(C)(C(=O)NCc2ccccc2)O3)c1 (centres undefined),active: -79.4%
17,CCCn1nc(NC(=O)c2cccs2)c2cc3ccc(C)cc3nc21,inactive: -27.5%
18,CCCCOC(=O)/C=C\C(=O)NC(N)=O,inactive: 112%
19,Cc1ccc(C)c(-c2csc(NC(=O)c3cnccn3)n2)c1,inactive: -4.82%
20,CCc1c(C(=O)NNC(=S)NC2CCCCC2)csc1C,inconclusive: -48.6%
